Assay results reported in patent publication US20230293460A1, “METHOD FOR TREATING DERMATITIS” (CHANG GUNG MEMORIAL HOSPITAL, LINKOU, priority 2020, published 2023).
For at least one compound, name, drawing or mass did not settle the structure.

Key:
generalized dermatitis = assay: Example 3: patient with poorly controlled generalized dermatitis; assay type: in vivo, human; details: high-dose oral steroid, 20 mg twice a day for 14 days; one patient
[1] = test system: generalized dermatitis (eczema) induced by an epidermal growth factor receptor inhibitor (osimertinib); assay: Example 2: patient with generalized dermatitis (eczema) induced by osimertinib; assay type: in vivo, human; details: 20 mg twice a day for 21 days; one patient

In the case of C[C@H]1C[C@@H]2[C@H]([C@@H](O)C[C@@]3(C)[C@H]2CC[C@]3(O)C(=O)CO)[C@@]2(C)C=CC(=O)C=C12 [methylprednisolone], the “control of generalized dermatitis” value (generalized dermatitis) is reported as “poorly controlled” and the improvement of dermatitis [1] is reported as “did not improve”.
